This is one part of the list.
target: T1, OsSMF1 (Oryza sativa, UniProt Q6ZLB0 1-436); test: protein-binding microarray (RPBM); PBS, 2% BSA, 51.3 ng/ul salmon testes DNA, 50 uM zinc acetate, 200 nM TF, 25 C, 1 h; high values mean tight binding; conditions: protein: recombinant; tags: N-terminal polyhistidine and DsRed monomer fusion (pET32a); chain copies: 2; label: CyDye5-dUTP incorporated in the synthesized complementary strand; 3' TTTTT single-stranded linker to array surface; dsDNA, one strand shown
T1 sequence: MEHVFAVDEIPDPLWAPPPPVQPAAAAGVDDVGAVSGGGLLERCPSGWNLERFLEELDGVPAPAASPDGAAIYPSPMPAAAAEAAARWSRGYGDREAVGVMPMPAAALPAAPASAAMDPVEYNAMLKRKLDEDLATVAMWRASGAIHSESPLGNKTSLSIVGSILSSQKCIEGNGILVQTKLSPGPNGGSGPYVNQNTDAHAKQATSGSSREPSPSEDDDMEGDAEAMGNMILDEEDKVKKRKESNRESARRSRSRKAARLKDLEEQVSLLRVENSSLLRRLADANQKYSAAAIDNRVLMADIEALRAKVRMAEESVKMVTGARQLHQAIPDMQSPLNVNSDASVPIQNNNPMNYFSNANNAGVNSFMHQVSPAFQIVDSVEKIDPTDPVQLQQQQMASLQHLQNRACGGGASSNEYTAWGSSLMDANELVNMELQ
In short: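 Binding signal is reported as fluorescence intensity per feature (arbitrary units) from an Axon 4000B scanner. Incubation used 200 nM of each Ni–NTA-purified, N-terminally polyhistidine- and DsRed-fused transcription factor from E. coli BL21-CodonPlus on a double-stranded custom Agilent array for 1 h at 25 °C, with 50 µM zinc acetate in the buffer, followed by washing.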

Row | Sequence | binding signal
1 | TGGGATGAGAGTATGAGACCACGTGTGGCGCCTCCGAGCACGGAGTCACCTAGTGCAG | 5090 fluorescence intensity (a.u.)
2 | TTGAGCCCATTTTACTGACCTGTCTCCCTGGGCTTTGTTGCGGAGTCACCTAGTGCAG | 3430 fluorescence intensity (a.u.)
3 | TGTATTTCGCCGGTTGCAATTTCGTCATCACTGCGGTTAGCGGAGTCACCTAGTGCAG | 3500 fluorescence intensity (a.u.)
4 | GAATTTGGTCTGTAGTAACAAGTTTTGCCACGCATATTATCGGAGTCACCTAGTGCAG | 3670 fluorescence intensity (a.u.)
5 | ATTCCGCCGTCCGCCATGGATGTCGTCACCGTGGTCTCTACGGAGTCACCTAGTGCAG | 5410 fluorescence intensity (a.u.)
6 | ATAGATTAATGAATTATATGCCTCGTCATTTGGTGAAATACGGAGTCACCTAGTGCAG | 4050 fluorescence intensity (a.u.)
7 | GCCACGCTAGTCCGCTTGGCGTGACAAAGCAACAATGGCACGGAGTCACCTAGTGCAG | 3350 fluorescence intensity (a.u.)
8 | CGAATTGAAGAATATGCATCCATGTGACACGCTTCTTGAACGGAGTCACCTAGTGCAG | 3940 fluorescence intensity (a.u.)
9 | ATTTCGTCTAGATAAAATGAGTTTTACAATTTATCCCTTACGGAGTCACCTAGTGCAG | 7930 fluorescence intensity (a.u.)
10 | ATCCATGGCCACACGATGCGGTCGGGATCGACGGCGGAGACGGAGTCACCTAGTGCAG | 3180 fluorescence intensity (a.u.)
11 | CGGCTGCGCTGACGACGACGACCGGCGCCCAGTACAGCTGCGGAGTCACCTAGTGCAG | 3190 fluorescence intensity (a.u.)
12 | TCTTGGACCTTATTTGCACGGTTTTAGGAGTTGAGGGACACGGAGTCACCTAGTGCAG | 3140 fluorescence intensity (a.u.)
13 | CTTCTTTCCCGCACGCGCGGCTCGCGCATGCATGCACGATCGGAGTCACCTAGTGCAG | 15000 fluorescence intensity (a.u.)
14 | GACAAGACCAGTTAAAATACATCAGATTAGGCAGTGCTGACGGAGTCACCTAGTGCAG | 3880 fluorescence intensity (a.u.)
15 | TAGGACCAAAACCATAGCCCATGTCAGCCGCATCCGACCCCGGAGTCACCTAGTGCAG | 3440 fluorescence intensity (a.u.)
16 | CAGCTAATTCCAAGCTTAAAACCTGGCTTAATGCTACTGCCGGAGTCACCTAGTGCAG | 3370 fluorescence intensity (a.u.)
17 | ACTTACCCTTTACTTTCACCCTTGGCTGTCATTCAGGTACCGGAGTCACCTAGTGCAG | 3170 fluorescence intensity (a.u.)
18 | ACAATAAATAGAAGAGAAGAGCTTCAATCGCAATCGGAATCGGAGTCACCTAGTGCAG | 26700 fluorescence intensity (a.u.)
19 | ACCGCGAGACCGAGGGCTAACGTCACGCCCTCATGCATCCCGGAGTCACCTAGTGCAG | 3690 fluorescence intensity (a.u.)
20 | ATCAAAAGTGGGGCGGCCCACGTGTCAGTGGCACCAAGTCCGGAGTCACCTAGTGCAG | 11400 fluorescence intensity (a.u.)
21 | CGCTCGCACGGCCTCACCCGACCACCGCCACCGCACAAATCGGAGTCACCTAGTGCAG | 3860 fluorescence intensity (a.u.)

Row | Sequence | binding signal
22 | GCCATTCCAGTCATTGGCATTGTTGTTTCCTGTCCACTGACGGAGTCACCTAGTGCAG | 3370 fluorescence intensity (a.u.)
23 | GAGAGAGAGAGAGAGAGGCAGGTGGCGCCGCCGCTGTCCCCGGAGTCACCTAGTGCAG | 3640 fluorescence intensity (a.u.)
24 | TGAGACCAAGTCCAACGCATACACTCCAACCACTCCTCTCCGGAGTCACCTAGTGCAG | 3190 fluorescence intensity (a.u.)
25 | CACTTTGGTAATAAAAGCTGGACCAATCTGCAATTTACTCCGGAGTCACCTAGTGCAG | 15000 fluorescence intensity (a.u.)
26 | GGCCGCGTGCGTGTGTCCAAACCTTCTCCACGCATTTCCTCGGAGTCACCTAGTGCAG | 4220 fluorescence intensity (a.u.)
27 | ATGGGGAGCGCAACGGGGAGAGCGAGGAGGCCGCCGTCCTCGGAGTCACCTAGTGCAG | 3470 fluorescence intensity (a.u.)
28 | TAGCTCGTACTCCTACATCGTAGCCACCGCGCCTCCCATGCGGAGTCACCTAGTGCAG | 3640 fluorescence intensity (a.u.)
29 | AATCCTGACGATAGGCGAATTATCCTATCTGCGTGGAATCCGGAGTCACCTAGTGCAG | 3400 fluorescence intensity (a.u.)
30 | AATTATTACAAACCACGACAATCAGCCAGCTTCTCCACGGCGGAGTCACCTAGTGCAG | 3970 fluorescence intensity (a.u.)
31 | CCAGCCATGTAATACCATGTCAGCTAAAACCACTGTCCAACGGAGTCACCTAGTGCAG | 3160 fluorescence intensity (a.u.)
32 | AAGATGGACGGTTAAATATTGGACACGGATATCAGGGTTTCGGAGTCACCTAGTGCAG | 27700 fluorescence intensity (a.u.)
33 | GAACACGGACACAGCAACACTGTGAACACACACGCACACCCGGAGTCACCTAGTGCAG | 3140 fluorescence intensity (a.u.)
34 | ATTACTAATTACTGTATGTTACTTGACTAAACAACCTATGCGGAGTCACCTAGTGCAG | 3340 fluorescence intensity (a.u.)
35 | TAGCTAGGCAGGGCTGCTGCTGCTGCCATCCCATTACGTGCGGAGTCACCTAGTGCAG | 13600 fluorescence intensity (a.u.)
36 | GTAGGAACTTGACATGTAGGTGGTAGGCTGGGGCTGAATACGGAGTCACCTAGTGCAG | 3540 fluorescence intensity (a.u.)
37 | GGCGATGACATGTTTATTTTGTCCCATTTTGACACATGCACGGAGTCACCTAGTGCAG | 4310 fluorescence intensity (a.u.)
38 | CTCTCATCATCATCATCATCCTCCTCCTCCCTATCCCCTTCGGAGTCACCTAGTGCAG | 3760 fluorescence intensity (a.u.)
39 | GGTCGGTTTTAGCTGCTGCTGCTGCGCCACAATGAGGTGGCGGAGTCACCTAGTGCAG | 5200 fluorescence intensity (a.u.)
40 | CATCGAGCTCATCCTATTGACTAGTCATAATGGGTTGTAACGGAGTCACCTAGTGCAG | 13900 fluorescence intensity (a.u.)
41 | GTAGCCAGCCCAGGCCCGGCACGGCACGTCAGCCTGTGGGCGGAGTCACCTAGTGCAG | 8400 fluorescence intensity (a.u.)
42 | CGTACGGATATGCCCACGTGGCGAAGTCCCACGACGCCACCGGAGTCACCTAGTGCAG | 9930 fluorescence intensity (a.u.)

— publication PMC7819943, “Rice protein-binding microarrays: a tool to detect cis-acting elements near promoter regions in rice”
